# Structures can show the parent of a compound that is named as a salt. The list shows a part of the results. Part of the spread comes from offsets between plates or batches.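 HCT116-GFP, a KRAS-mutant, microsatellite-unstable human colorectal cancer line, constantly expresses green fluorescent protein; immune cells were from healthy donors. Cancer cell survival was tracked by live-cell imaging of green fluorescence, and activated immune cells by themselves reduced survival to roughly half.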
# Tested on: HCT116-GFP
# Assay: HCT116-GFP viability (GFP intensity) relative to untreated HCT116-GFP monoculture control, co-culture with activated PBMCs; higher = less cancer cell killing
# Settings: culture: co-culture with anti-CD3/IL2 activated PBMCs 1:1; 10 µM; 72 h
row,SMILES,HCT116-GFP viability
1,CN1CCN2c3ncccc3Cc3ccccc3C2C1 (stereo not drawn) [Mirtazapine],55.3%
2,CC(C)[C@H](N)C(=O)OCCOCn1cnc2c(=O)nc(N)[nH]c21 [Valacyclovir hydrochloride],51.1%
3,Cc1cc(C)nc(NS(=O)(=O)c2ccc(N)cc2)n1 [Sulfamethazine sodium salt],74.7%
4,CC1(C)O[C@@H]2C[C@H]3[C@@H]4C[C@H](F)C5=CC(=O)C=C[C@]5(C)[C@@]4(F)[C@@H](O)C[C@]3(C)[C@]2(C(=O)CO)O1 [Fluocinolone acetonide],91.7%
5,COc1cc(NS(=O)(=O)c2ccc(N)cc2)ncn1 [Sulfamonomethoxine],68.3%
6,COC(=O)N/N=C/c1c[n+]([O-])c2ccccc2[n+]1[O-] [Carbadox],36.4%
7,CN(C(=O)CN(CCO)CC(=O)N(C)C(C)(C)Cc1ccccc1)C(C)(C)Cc1ccccc1 [Oxethazaine],34.1%
8,CCOC(=O)/C=C(C)/C=C/C=C(C)/C=C/c1c(C)cc(OC)c(C)c1C [Etretinate],69.7%
9,Cc1c(N)c(=O)n(-c2ccccc2)n1C [Ampyrone],34.8%
10,NC[C@H]1O[C@H](O[C@H]2[C@H](O)[C@@H](O[C@H]3O[C@H](CO)[C@@H](O)[C@H](N)[C@H]3O)[C@H](N)C[C@@H]2N)[C@H](N)C[C@@H]1O [Tobramycin],4.82%
11,C=CCOc1ccccc1OCC(O)CNC(C)C (stereo not drawn) [Oxprenolol hydrochloride],56.9%
12,O=P(O)(O)C(O)(Cn1ccnc1)P(=O)(O)O [Zoledronic acid hydrate],33.3%
13,Cc1cc(C(C)(C)C)cc(C)c1CC1=NCCN1 [Xylometazoline hydrochloride],47.5%
14,CCN(CC)C(=O)C1(c2ccccc2)CC1CN (stereo not drawn) [Milnacipran hydrochloride],50.4%
15,CCN(CCCCOC(=O)c1ccc(OC)c(OC)c1)C(C)Cc1ccc(OC)cc1 (stereo not drawn) [Mebeverine hydrochloride],69.4%
16,CCN(CC)CCOCCOC(=O)C1(c2ccccc2)CCCC1 [Carbetapentane citrate],69.1%
17,N[C@H]1CONC1=O [(S)-(-)-Cycloserine],28.3%
18,CCCCC1C(=O)N(c2ccccc2)N(c2ccc(O)cc2)C1=O (stereo not drawn) [Oxyphenbutazone],14.7%
19,CCN(CC)C(=O)Nc1ccc(OCC(O)CNC(C)(C)C)c(C(C)=O)c1 (stereo not drawn) [Celiprolol hydrochloride],27.1%
20,COc1cc2nc(N3CCN(C(=O)C4COc5ccccc5O4)CC3)nc(N)c2cc1OC (stereo not drawn) [Doxazosin mesylate],57.7%
21,CCOC1O[C@H]([C@@H](COCc2ccccc2)OCc2ccccc2)[C@H](OCc2ccccc2)[C@H]1O (stereo partly drawn) [Tribenoside],33.5%
22,CNCC(O)c1ccc(O)c(O)c1 (stereo not drawn) [Racepinephrine hydrochloride],13.4%
23,CCN(CC)CCNC(=O)c1ccc(N)cc1 [Procainamide hydrochloride],46.9%
24,CC(=O)Nc1c(I)c(C(=O)N[C@H]2C(O)O[C@H](CO)[C@@H](O)[C@@H]2O)c(I)c(N(C)C(C)=O)c1I (stereo partly drawn) [Metrizamide],41.8%

row,SMILES,HCT116-GFP viability
1,C[C@@H]1CCC[C@H](C)N1NC(=O)c1ccc(Cl)c(S(N)(=O)=O)c1 [Clopamide],41.3%
2,CC[C@H]1OC(=O)[C@H](C)[C@@H](O[C@H]2C[C@@](C)(OC)[C@@H](O)[C@H](C)O2)[C@H](C)[C@@H](O[C@@H]2O[C@H](C)C[C@H](N(C)C)[C@H]2O)[C@](C)(O)C[C@@H](C)CN(C)[C@H](C)[C@@H](O)[C@]1(C)O [Azithromycin],59%
3,CN[C@H]1CC[C@@H](c2ccc(Cl)c(Cl)c2)c2ccccc21 [Sertraline],24.1%
4,CC(CNC1CCCCC1)OC(=O)c1ccccc1 (stereo not drawn) [Hexylcaine hydrochloride],85.9%
5,Nc1ccc(S(=O)(=O)Nc2nccs2)cc1 [Sulfathiazole],44.3%
6,Cc1ccc(-c2cc(C(F)(F)F)nn2-c2ccc(S(N)(=O)=O)cc2)cc1 [Celecoxib],32.1%
7,C[C@]12CC[C@@H]3c4ccc(O)cc4C[C@@H](CCCCCCCCC[S+]([O-])CCCC(F)(F)C(F)(F)F)[C@H]3[C@@H]1CC[C@@H]2O (stereo partly drawn) [Fulvestrant],24.6%
8,CO/N=C(\C(=O)N[C@@H]1C(=O)N2C(C(=O)O)=C(COC(C)=O)CS[C@H]12)c1csc(N)n1 [Cefotaxime sodium salt],46.6%
9,CCCCOc1cc(C(=O)OCCN(CC)CC)ccc1N [Benoxinate hydrochloride],42.6%
10,CC(C)Oc1ccc2c(=O)c(-c3ccccc3)coc2c1 [Ipriflavone],33%
11,Cc1cc2cc3c(C)cc(=O)oc3c(C)c2o1 [Trioxsalen],63.5%
12,CC(=O)Nc1nnc(S(N)(=O)=O)s1 [Acetazolamide],34.4%
13,Clc1ccc2nsnc2c1NC1=NCCN1 [Tizanidine hydrochloride],51.5%
14,C[C@@](Cc1ccc(O)c(O)c1)(NN)C(=O)O [Carbidopa],53.1%
15,CCOc1nc2cccc(C(=O)O)c2n1Cc1ccc(-c2ccccc2-c2nnn[nH]2)cc1 [Candesartan],43%
16,Nc1ncnc2c1ncn2[C@@H]1O[C@H](CO)[C@@H](O)[C@@H]1O [Vidarabine],50.9%
17,CC(=O)OC[C@H]1O[C@@H]([S-])[C@H](OC(C)=O)[C@@H](OC(C)=O)[C@@H]1OC(C)=O.CCP(CC)CC.[Au+] [Auranofin],1.13%
18,CCC1(c2ccccc2)C(=O)NCNC1=O [Primidone],61.7%
19,O=C1CC[C@@H](C(=O)N2CSC[C@H]2C(=O)O)N1 [Pidotimod],54.2%
20,Oc1c(Cl)cc(Cl)c2cccnc12 [Chloroxine],6.25%
21,c1ccc(-c2ccc(C(c3ccccc3)n3ccnc3)cc2)cc1 (stereo not drawn) [Bifonazole],30.3%
22,CN(C)CCC(c1ccc(Br)cc1)c1ccccn1 (stereo not drawn) [Brompheniramine maleate],66.2%
23,CN1CCN(CC(=O)N2c3ccccc3C(=O)Nc3cccnc32)CC1 [Pirenzepine dihydrochloride],51.9%
24,COC(=O)Nc1nc2cc(Sc3ccccc3)ccc2[nH]1 [Fenbendazole],1.47%

# Random excerpt: three records from the list, in no set order.
row,SMILES,HCT116-GFP viability
18,CCC1(c2ccccc2)C(=O)NCNC1=O [Primidone],61.7%
3,CN[C@H]1CC[C@@H](c2ccc(Cl)c(Cl)c2)c2ccccc21 [Sertraline],24.1%
2,CC[C@H]1OC(=O)[C@H](C)[C@@H](O[C@H]2C[C@@](C)(OC)[C@@H](O)[C@H](C)O2)[C@H](C)[C@@H](O[C@@H]2O[C@H](C)C[C@H](N(C)C)[C@H]2O)[C@](C)(O)C[C@@H](C)CN(C)[C@H](C)[C@@H](O)[C@]1(C)O [Azithromycin],59%

# Reference: the supplement of paper PMC9938546
